The values below come from publication doi:10.1101/2020.01.28.924043.

Sequences of proteins named here, by UniProt entry; tags and fusion partners are left off.
UniProt Q07157: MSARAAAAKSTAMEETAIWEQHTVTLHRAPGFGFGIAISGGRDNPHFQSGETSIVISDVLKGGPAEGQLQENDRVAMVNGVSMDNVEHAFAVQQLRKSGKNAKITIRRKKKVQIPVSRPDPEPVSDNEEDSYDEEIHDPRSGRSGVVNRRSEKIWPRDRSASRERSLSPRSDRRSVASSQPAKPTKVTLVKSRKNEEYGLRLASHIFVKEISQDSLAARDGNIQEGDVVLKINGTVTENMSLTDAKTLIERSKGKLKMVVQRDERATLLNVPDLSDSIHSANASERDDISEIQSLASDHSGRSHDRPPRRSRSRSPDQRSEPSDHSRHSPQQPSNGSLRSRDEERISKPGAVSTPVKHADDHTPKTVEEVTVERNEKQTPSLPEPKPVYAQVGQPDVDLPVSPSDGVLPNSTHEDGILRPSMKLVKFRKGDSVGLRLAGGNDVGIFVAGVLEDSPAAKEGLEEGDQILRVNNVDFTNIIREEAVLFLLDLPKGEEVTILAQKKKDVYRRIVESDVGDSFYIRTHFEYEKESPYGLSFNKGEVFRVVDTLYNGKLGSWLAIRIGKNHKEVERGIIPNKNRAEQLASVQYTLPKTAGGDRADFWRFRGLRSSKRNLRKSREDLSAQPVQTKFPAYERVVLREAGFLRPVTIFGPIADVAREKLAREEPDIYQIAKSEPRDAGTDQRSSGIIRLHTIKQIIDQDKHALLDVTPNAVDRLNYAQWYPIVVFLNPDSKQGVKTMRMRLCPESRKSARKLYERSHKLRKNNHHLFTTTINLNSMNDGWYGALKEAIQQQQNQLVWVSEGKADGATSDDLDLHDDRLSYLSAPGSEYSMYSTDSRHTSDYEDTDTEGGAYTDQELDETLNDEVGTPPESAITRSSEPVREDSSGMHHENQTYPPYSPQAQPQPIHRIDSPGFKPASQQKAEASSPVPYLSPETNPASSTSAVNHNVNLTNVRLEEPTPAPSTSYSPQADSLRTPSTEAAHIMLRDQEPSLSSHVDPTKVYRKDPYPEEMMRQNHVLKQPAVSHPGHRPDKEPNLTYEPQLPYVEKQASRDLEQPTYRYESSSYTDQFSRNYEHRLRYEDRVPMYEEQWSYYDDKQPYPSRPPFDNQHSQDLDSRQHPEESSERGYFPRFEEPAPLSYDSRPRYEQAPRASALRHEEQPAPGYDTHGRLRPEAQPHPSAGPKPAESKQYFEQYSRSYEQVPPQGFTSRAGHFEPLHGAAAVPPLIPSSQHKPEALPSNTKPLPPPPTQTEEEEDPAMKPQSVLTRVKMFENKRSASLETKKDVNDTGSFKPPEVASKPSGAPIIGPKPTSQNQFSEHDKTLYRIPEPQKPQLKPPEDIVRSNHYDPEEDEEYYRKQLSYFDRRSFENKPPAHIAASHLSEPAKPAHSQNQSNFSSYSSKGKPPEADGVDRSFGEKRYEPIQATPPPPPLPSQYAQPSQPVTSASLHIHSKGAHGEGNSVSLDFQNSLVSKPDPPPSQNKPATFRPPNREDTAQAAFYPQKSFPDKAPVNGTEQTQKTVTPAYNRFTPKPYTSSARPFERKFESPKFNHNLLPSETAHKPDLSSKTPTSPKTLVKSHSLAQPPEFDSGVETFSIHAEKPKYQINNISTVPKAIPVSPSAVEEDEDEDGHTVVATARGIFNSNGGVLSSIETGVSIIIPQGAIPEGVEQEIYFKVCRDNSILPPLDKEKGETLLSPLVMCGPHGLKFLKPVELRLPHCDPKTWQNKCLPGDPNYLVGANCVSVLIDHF

The assay has as its target zonula occludin-1 (ZO-1) (human (endogenous in HCMEC/D3)) (UniProt Q07157). In words: co-IP.

No constants are given. Whether binding was seen depends on the method and setting. In cells and extracts the contact can be indirect. Some entries that bind do so weakly or less than the wild type.

On to “spectrin-αII (from UniProt Q13813 1-2472)”, for which the binding entry was “binds”.

B1: adducin-γ (ADD3) (protein, UniProt Q9UEY8 1-706)
chain: MSSDASQGVITTPPPPSMPHKERYFDRINENDPEYIRERNMSPDLRQDFNMMEQRKRVTQILQSPAFREDLECLIQEQMKKGHNPTGLLALQQIADYIMANSFSGFSSPPLSLGMVTPINDLPGADTSSYVKGEKLTRCKLASLYRLVDLFGWAHLANTYISVRISKEQDHIIIIPRGLSFSEATASNLVKVNIIGEVVDQGSTNLKIDHTGFSPHAAIYSTRPDVKCVIHIHTLATAAVSSMKCGILPISQESLLLGDVAYYDYQGSLEEQEERIQLQKVLGPSCKVLVLRNHGVVALGETLEEAFHYIFNVQLACEIQVQALAGAGGVDNLHVLDFQKYKAFTYTVAASGGGGVNMGSHQKWKVGEIEFEGLMRTLDNLGYRTGYAYRHPLIREKPRHKSDVEIPATVTAFSFEDDTVPLSPLKYMAQRQQREKTRWLNSPNTYMKVNVPEESRNGETSPRTKITWMKAEDSSKVSGGTPIKIEDPNQFVPLNTNPNEVLEKRNKIREQNRYDLKTAGPQSQLLAGIVVDKPPSTMQFEDDDHGPPAPPNPFSHLTEGELEEYKRTIERKQQGLEDAEQELLSDDASSVSQIQSQTQSPQNVPEKLEENHELFSKSFISMEVPVMVVNGKDDMHDVEDELAKRVSRLSTSTTIENIEITIKSPEKIEEVLSPEGSPSKSPSKKKKKFRTPSFLKKNKKKEKVEA
Regarding B1, the binding result is listed as “binds”.
